The values that follow come from the supplement of paper PMC8728848.

Some of the results follow.

Holding throughout (test): glycan array binding signal (z-score within array); higher = stronger binding
What all share (conditions): glycan notation: IUPAC condensed, linker removed

In one experiment the target is Fuc(a1-2)Gal. An outline of the steps: (§1)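 Glycan array data came from 3228 arrays in the Consortium for Functional Glycomics database, and only arrays with an available protein sequence were kept. Glycan names were put into IUPAC-condensed notation, and columns mapping to the same glycan were averaged. The binding signal is a within-array Z-score, averaged across arrays of one protein sequence run at different concentrations or buffers and across linkers. A negative Z-score can be read as non-binding.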

The target of a further experiment is Fuc(a1-2)Gal(b1-3)GalNAc. The procedure, abridged: as §1
Experiment [1] addresses Fuc(a1-2)Gal(b1-3)GalNAc(a1-3)[Fuc(a1-2)]Gal(b1-4)Glc. An outline of the steps: as §1
In experiment [2] the target is Fuc(a1-2)Gal(b1-3)GalNAc(a1-3)[Fuc(a1-2)]Gal(b1-4)GlcNAc. An outline of the steps:
as §1

The target in experiment [3] is Fuc(a1-2)Gal(b1-3)GalNAc(b1-3)Gal. The procedure, abridged: as §1
In experiment [4] the target is Fuc(a1-2)Gal(b1-3)GalNAc(b1-3)Gal(a1-4)Gal(b1-4)Glc. An outline of the steps: as §1
Experiment [5] deals with Fuc(a1-2)Gal(b1-3)GalNAc(b1-4)[Neu5Ac(a2-3)]Gal(b1-4)Glc. An outline of the steps:
as §1

The target in the next experiment is Fuc(a1-2)Gal(b1-3)GlcNAc. The procedure, abridged: as §1
The target of experiment [6] is Fuc(a1-2)Gal(b1-3)GlcNAc(b1-2)Man(a1-3)[Fuc(a1-2)Gal(b1-3)GlcNAc(b1-2)Man(a1-6)]Man(b1-4)GlcNAc(b1-4)GlcNAc. The procedure, abridged: as §1
Experiment [7] has as its target Fuc(a1-2)Gal(b1-3)GlcNAc(b1-2)Man(a1-3)[Fuc(a1-2)Gal(b1-3)GlcNAc(b1-2)Man(a1-6)]Man(b1-4)GlcNAc(b1-4)[Fuc(a1-6)]GlcNAc. The procedure, abridged: as §1
In experiment [8] the target is Fuc(a1-2)Gal(b1-3)GlcNAc(b1-3)Gal(b1-4)Glc. An outline of the steps:
as §1

The target of experiment [9] is Fuc(a1-2)Gal(b1-3)GlcNAc(b1-3)GalNAc. An outline of the steps:
as §1

Experiment [10] has as its target Fuc(a1-2)Gal(b1-3)GlcNAc(b1-3)[Fuc(a1-2)Gal(b1-3)GlcNAc(b1-6)]GalNAc. The procedure, abridged: as §1
In experiment [11] the target is Fuc(a1-2)Gal(b1-3)GlcNAc(b1-3)[Gal(b1-4)GlcNAc(b1-6)]Gal(b1-4)Glc. The procedure, abridged:
as §1

Experiment [12] concerns the target Fuc(a1-2)Gal(b1-3)GlcNAc(b1-3)[Neu5Ac(a2-6)Gal(b1-4)GlcNAc(b1-6)]Gal(b1-4)Glc. The procedure, abridged:
as §1

In experiment [13] the target is Fuc(a1-2)Gal(b1-3)GlcNAc6S. An outline of the steps:
as §1

For experiment [14], the target named is Fuc(a1-2)Gal(b1-3)[Fuc(a1-4)]GlcNAc. An outline of the steps: as §1
In experiment [15] the target is Fuc(a1-2)Gal(b1-3)[Fuc(a1-4)]GlcNAc(b1-2)Man(a1-3)[Fuc(a1-2)Gal(b1-3)[Fuc(a1-4)]GlcNAc(b1-2)Man(a1-3)]Man(b1-4)GlcNAc(b1-4)GlcNAc. An outline of the steps:
as §1

Experiment [16] has as its target Fuc(a1-2)Gal(b1-3)[Fuc(a1-4)]GlcNAc(b1-2)Man(a1-3)[Fuc(a1-2)Gal(b1-3)[Fuc(a1-4)]GlcNAc(b1-2)Man(a1-6)]Man(b1-4)GlcNAc(b1-4)[Fuc(a1-6)]GlcNAc(b1-4)[Fuc(a1-6)]GlcNAc. The procedure, abridged: as §1
In experiment [17] the target is Fuc(a1-2)Gal(b1-3)[Fuc(a1-4)]GlcNAc(b1-3)[Fuc(a1-3)[Gal(b1-4)]GlcNAc(b1-6)]Gal(b1-4)Glc. An outline of the steps:
as §1

Experiment [18] has as its target Fuc(a1-2)Gal(b1-3)[Fuc(a1-4)]GlcNAc(b1-3)[Gal(b1-4)GlcNAc(b1-6)]Gal(b1-4)Glc. An outline of the steps: as §1
The target of experiment [19] is Fuc(a1-2)Gal(b1-4)Fuc(a1-3)]GlcNAc(b1-2)Man(a1-3)[Fuc(a1-2)Gal(b1-4)[Fuc(a1-3)]GlcNAc(b1-2)Man(a1-6)]Man(b1-4)GlcNAc(b1-4)GlcNAc. An outline of the steps: as §1

B1: SspB A3vp1 (Streptococcus gordonii), Q54186 (protein)
chain: MTNEADYQAKLAAYQTELARVQKANADAKATYEKAVEDNKAKNAAIKAENEEIKQRNAVAKTDYEAKLAKYEADLAKYKKEFAAYTAALAEAESKKKQDGYLSEPRSQSLNFKSEPNAIRTIDSSVHQYGQQELDALVKSWGISPTNPDRKKSRAYSYFNAINSNNTYAKLVLEKDKPVDVTYTGLKNSSFNGKKISKVVYTYTLKETGFNDGTKMTMFASSDPTVTAWYNDYFTSTNINVKVKFYDEEGQLMNLTGGLVNFSSLNRGNGSGAIDKDAIESVRNFNGRYIPISGSSIKIHENNSAYADSSNAEKSLGARWNTSEWDTTSSPNNWYGAIVGEITQSEISFNMASSKSGNIWFAFNSNINAIGVPTKPVAPTAPTQPMYETEKPLEPAPVAPSYENEPTPPVKTPDQPEPSKPAAALEHHHHHH
In the case of B1, the “glycan array binding signal (z-score)” value with Fuc(a1-2)Gal is -0.712; with Fuc(a1-2)Gal(b1-3)GalNAc it was -0.908; in [1], -0.395; in experiment [2] it was -0.064; in experiment [3] it was -0.686; in experiment [4], -0.246. Besides, the “glycan array binding signal (z-score)” value in experiment [5] is 0.065; in the experiment with Fuc(a1-2)Gal(b1-3)GlcNAc, -0.862; in [6] it was 6.26; in [7], 0.989; in experiment [8], -0.491; in experiment [9], -0.383. Further, the “glycan array binding signal (z-score)” value is 1.55 in experiment [10]; -1.08 in [11]; -0.004 in [12]; -0.03 in experiment [13]; 0.448 in [14]; 0.591 in experiment [15]. Further, the “glycan array binding signal (z-score)” value in experiment [16] was 0.066; in experiment [17] it was -0.146; in experiment [18], -0.726; in [19], 0.17.
